Results from PubChem BioAssay AID540276 (National Center for Advancing Translational Sciences (NCATS), 2011).
Among all 300,000 compounds or so, about 5,400 (1.8%) were called active. Inconclusive means that the source gave no clear call. Such entries were picked first, then a sample of the others. Calls follow the shape of the full dose curve; tested in HEK293 cells. Where the call is inconclusive, the potency comes from a doubtful curve fit.

Test: qHTS for inhibitors of binding or entry into cells for Marburg Virus
Settings: Marburg virus pseudotyped entry inhibition, cell reporter; activity change, negative = inhibition: at 37.8 µM (top of the series) unless noted
% is scaled to controls: 0 for no effect and ±100 for the full control effect; potency is read from the fitted curve at half-maximal effect.

Structure (SMILES) | activity change, negative = inhibition | Potency
Cc1ccc(C(C(=O)NC2CCCCC2)N(C(=O)CCCC(=O)Nc2ccccn2)c2ccc3c(c2)OCCO3)cc1 (stereo not drawn) | inactive: 19.9% | –
CCOc1ccc(S(=O)(=O)N2CCN(Cc3ccc4c(c3)OCO4)CC2)cc1Cl | – | inconclusive: 35.5 µM [inhibitor, single point]
Cc1ccc(-c2nn(-c3ccccc3)cc2C(=O)Nc2cccc(S(=O)(=O)N3CCOCC3)c2)cc1 | – | inconclusive: 35.5 µM [inhibitor, single point]
Cn1c(N)c(C(=O)COC(=O)c2ccc3c(c2)C(=O)N(c2ccc(Cl)cc2)C3=O)c(=O)n(C)c1=O | inactive: 2.47% | –
O=C(COC(=O)C1C2CC3OC(=O)C1C3C2)Nc1ccc(F)cc1 (stereo not drawn) | – | inconclusive: 5.01 µM [activator, partial curve]
COc1ccc(N2CCN(/C(=N\S(=O)(=O)c3ccccc3)Nc3nc(C)cc(C)n3)CC2)cc1 | – | inactive
N#Cc1cc(-c2ccccc2)nc(NN)n1 | – | inconclusive: 14.1 µM [inhibitor, partial curve, poor fit]
Oc1ccccc1N1CCN(c2ccc3ccccc3n2)CC1 | – | inconclusive: 1.26 µM [activator, partial curve, poor fit]
COc1ccc(Cl)cc1NC(=O)CN(C)C(=O)c1cn(-c2ccccc2)nc1-c1cccnc1 | – | inconclusive: 35.5 µM [inhibitor, single point]
Cc1ccc(-c2nn(-c3ccccc3)cc2CSC(=N)N)cc1 | – | inconclusive: 11.2 µM [inhibitor, partial curve, poor fit]
CC(C)c1ccc(C2NC(=O)NC3=C2CCc2ccccc23)cc1 (stereo not drawn) | inactive: -55.6% | –
CCCC(c1nnnn1Cc1ccc(OC)cc1)N1CCC(C(N)=O)CC1 (stereo not drawn) | inactive: 4.5% [at 46.1 µM] | –
CCCCOC(=O)c1cc(-c2ccc(/C=N/n3cnnc3)o2)ccc1Cl | – | inconclusive: 36.6 µM [inhibitor, partial curve, poor fit]
COc1ccccc1C1(CC(=O)N2CCCCC2)CCOC(C(C)C)C1 (stereo not drawn) | – | inconclusive: 5.17 µM [activator, partial curve, poor fit]
Cc1oc(-c2ccccc2F)nc1CS(=O)(=O)CC(=O)NCCCN(C)C1CCCCC1 | – | inconclusive: 20.6 µM [inhibitor, partial curve]
Cc1sc2nc(C)n(/N=C/c3ccccc3)c(=O)c2c1C | – | inconclusive: 1.16 µM [activator, full curve, poor fit]
COc1cccc2c1C(=O)c1c(O)c3c(c(O)c1C2=O)CC(O)(C(C)=O)CC3OC1CC(N(C)C)C(O)C(C)O1 (stereo not drawn) | – | inconclusive: 3.55 µM [inhibitor, full curve, poor fit]
CCC1(c2ccccc2)NC(=O)N(CC(=O)Nc2cc(S(=O)(=O)N3CCCCCC3)ccc2OC)C1=O (stereo not drawn) | – | inconclusive: 14.1 µM [inhibitor, partial curve, poor fit]
Cc1c(NC(=O)COc2ccc(C(C)C)cc2)c(=O)n(-c2ccccc2)n1C | – | inconclusive: 35.5 µM [activator, single point]
Cc1cc(Nc2ccccc2)c2c([N+](=O)[O-])cc(C)c(C)c2n1 | – | inconclusive: 8.91 µM [inhibitor, partial curve]
COc1cccc(C(=O)Nc2nc(C)cs2)c1 | – | inconclusive: 1.41 µM [activator, partial curve, poor fit]
COCCNC(=O)c1ccc2c(=O)n(Cc3ccco3)c(SCC(=O)NC3CCCCC3)nc2c1 | inactive: 21.4% | –
COCCN(CC1CCCN(C2Cc3ccccc3C2)C1)C(=O)c1cccs1 (stereo not drawn) | inactive: -3.08% [at 46.1 µM] | –

Gathered by group, the entries above containing an aryl methoxy group
Structure (SMILES) | activity change, negative = inhibition | Potency
COc1ccc(N2CCN(/C(=N\S(=O)(=O)c3ccccc3)Nc3nc(C)cc(C)n3)CC2)cc1 | – | inactive
COc1ccc(Cl)cc1NC(=O)CN(C)C(=O)c1cn(-c2ccccc2)nc1-c1cccnc1 | – | inconclusive: 35.5 µM [inhibitor, single point]
CCCC(c1nnnn1Cc1ccc(OC)cc1)N1CCC(C(N)=O)CC1 (stereo not drawn) | inactive: 4.5% [at 46.1 µM] | –
COc1ccccc1C1(CC(=O)N2CCCCC2)CCOC(C(C)C)C1 (stereo not drawn) | – | inconclusive: 5.17 µM [activator, partial curve, poor fit]
COc1cccc2c1C(=O)c1c(O)c3c(c(O)c1C2=O)CC(O)(C(C)=O)CC3OC1CC(N(C)C)C(O)C(C)O1 (stereo not drawn) | – | inconclusive: 3.55 µM [inhibitor, full curve, poor fit]
CCC1(c2ccccc2)NC(=O)N(CC(=O)Nc2cc(S(=O)(=O)N3CCCCCC3)ccc2OC)C1=O (stereo not drawn) | – | inconclusive: 14.1 µM [inhibitor, partial curve, poor fit]
COc1cccc(C(=O)Nc2nc(C)cs2)c1 | – | inconclusive: 1.41 µM [activator, partial curve, poor fit]

(listing goes on)

Structure (SMILES) | activity change, negative = inhibition | Potency
CCN(CC)c1ccc(S(=O)(=O)N2CCCCC2)cc1NC(=O)C1=COCCO1 | – | inconclusive: 35.5 µM [inhibitor, single point]
Cn1c(=O)c2[nH]c(-c3ccccc3Cl)c(O)c2n(C)c1=O | inactive: 7.19% | –
COc1ccccc1C(=O)COC(=O)/C=C/c1ccccc1 | inactive: -8.06% | –
Oc1sc(C=Nc2ccccc2)c2ccccc12 | inactive: -22.1% | –
Cc1cccc(-c2noc(CN(C)C(=O)c3ccco3)n2)c1 | – | inconclusive: 3.16 µM [activator, partial curve, poor fit]
COc1ccccc1OCC(=O)c1[nH]c(C)c(C(C)=O)c1C | – | inconclusive: 35.5 µM [inhibitor, single point]
COc1cccc(Nc2nnc(SCC(=O)N(CC(C)C)CC(C)C)s2)c1 | – | inconclusive: 3.55 µM [activator, single point]
O=C(NC1CCCc2ccccc21)c1cn2ccccc2n1 (stereo not drawn) | inactive: 5.41% | –
Oc1ccc(/C=N/N=C/c2ccc(O)cc2)cc1 | – | inconclusive: 14.1 µM [activator, single point]
CCN1CCc2c(sc(NC(=O)c3ccc(S(=O)(=O)N(CC)c4ccccc4)cc3)c2C(N)=O)C1 | – | inconclusive: 7.08 µM [inhibitor, partial curve, poor fit]
CCc1cccc2c(N=O)c(O)[nH]c12 | inactive: 29.3% | –
CCOC(=O)CSc1nc2ccccc2c(=O)n1C | – | inconclusive: 31.6 µM [activator, single point]
O=C1/C(=C\c2ccco2)NC(=S)N1c1ccccc1 | – | inconclusive: 10 µM [activator, partial curve]
COC(=O)CCC(=O)N1CCOCCOCCN(C(=O)CCC(=O)OC)CCOCCOCC1 | inactive: 7.35% | –
O=C(NCc1ccncc1)c1ccc(Cl)c(S(=O)(=O)N2CCCCC2)c1 | – | inconclusive: 1.26 µM [inhibitor, partial curve, poor fit]
CC(C)c1ccc(NC(=O)c2cc3c(=O)[nH]c4ccccc4c3n2C)cc1 | inactive: 5.65% [at 46.1 µM] | –
Cc1csc(CN(C)C(=O)CC2C(=O)NCCN2Cc2ccc(-c3ccccc3)cc2)n1 (stereo not drawn) | – | inconclusive: 17.8 µM [inhibitor, partial curve, poor fit]
CCOc1ccc(S(=O)(=O)N2CCCCC2)cc1NC(=O)C1COc2ccccc2O1 (stereo not drawn) | – | inconclusive: 35.5 µM [inhibitor, single point]
O=C(CCNC(=O)c1ccc(Br)o1)NC1CCCC1 | – | inconclusive: 4.11 µM [inhibitor, partial curve, poor fit]
CNC(=S)N(Cc1cccs1)Cc1cc2ccc(OC)cc2[nH]c1=O | – | inconclusive: 0.112 µM [inhibitor, full curve, poor fit]
CCN1C(=O)c2ccccc2S(=O)(=O)c2ccc(C(=O)NCc3ccccc3OC)cc21 | inactive: -0.923% [at 46.1 µM] | –
CCN(CC)CCn1c(NCc2ccc(C)o2)nc2ccccc21 | – | inconclusive: 0.355 µM [activator, partial curve, poor fit]
Cc1cc2nc(-c3ccc(SCC(=O)Nc4ccc(S(=O)(=O)N5CCCC5)cc4)nc3)[nH]c2cc1C | – | active: 11.6 µM

A few values from the results shown.
Under activity change, negative = inhibition, O=C(NC1CCCc2ccccc21)c1cn2ccccc2n1 (stereo not drawn) is entered as inactive: 5.41%
Under Potency, CNC(=S)N(Cc1cccs1)Cc1cc2ccc(OC)cc2[nH]c1=O is entered as inconclusive: 0.112 µM [inhibitor, full curve, poor fit]

(further entries)

Structure (SMILES) | activity change, negative = inhibition | Potency
COc1ccc(OC(=O)Nc2ccccc2)cc1 | – | inconclusive: 2.91 µM [activator, single point]
CN(CC(=O)Nc1ccc(Cl)cc1)C(=O)C1CCCC1 | – | inconclusive: 15.8 µM [activator, single point]
CCN(CC)CCCN(Cc1cc2cc3c(cc2[nH]c1=O)OCO3)C(=S)Nc1ccccc1OC | – | inconclusive: 14.1 µM [inhibitor, partial curve, poor fit]
Cc1cc2ccccn2c1C(C[N+](=O)[O-])c1c(F)cccc1Cl (stereo not drawn) | – | inconclusive: 6.31 µM [inhibitor, single point]
Cc1ccc(OCC(=O)NC(=S)Nc2cccc(NC(=O)c3ccccc3Cl)c2)cc1 | – | inconclusive: 35.5 µM [activator, single point]
COC(=O)c1sccc1NC(=O)/C=C\c1ccc(Cl)cc1Cl | – | inconclusive: 1.41 µM [activator, partial curve, poor fit]
O=C(NCc1cccnc1)c1cc(C(=O)C2CC2)c[nH]1 | inactive: 18% [at 46.1 µM] | –
CCCOC(=O)c1cccc(NC(=O)COc2ccc([N+](=O)[O-])cc2)c1 | inactive: -34.4% | –
CCCNC(=O)c1ccc2c(=O)n(Cc3ccco3)c(=S)[nH]c2c1 | – | inconclusive: 0.447 µM [inhibitor, single point]
COc1ccc(NS(=O)(=O)c2cccc(NC(=O)CCC(=O)c3ccc(Cl)cc3)c2)cc1 | – | inconclusive: 17.8 µM [inhibitor, single point]
O=C(Nc1ccc(-c2cn3c(n2)SCC3)cc1)c1ccc2c(c1)OCO2 | – | inconclusive: 3.55 µM [activator, partial curve, poor fit]
CCCCCCN(C(=O)CCCCCN1C(=O)NC(c2ccc(-c3ccccc3)cc2)C(C(=O)OCc2ccccc2)=C1C)C(C)C(=O)NCCCC (stereo not drawn) | – | inconclusive: 5.17 µM [inhibitor, full curve, poor fit]
O=C(CSc1nnc(NC(=O)c2ccc(F)cc2)s1)NC1CC1 | – | inconclusive: 22.4 µM [activator, single point]
O=S(=O)(Nc1ccccc1O)c1cccc2cccnc12 | – | inconclusive: 35.5 µM [inhibitor, partial curve, poor fit]
Cc1cc(=O)c(C(=O)O)nn1-c1ccccc1 | – | inconclusive: 1.78 µM [inhibitor, partial curve]
Cc1cc(C)cc(OCC(=O)N/N=C/c2ccncc2)c1 | inactive: -8.46% | –
COc1ccc(-c2nc(CSCC(=O)NCCC(C)C)c(C)o2)cc1OC | inactive: -0.483% [at 46.1 µM] | –
O=C(c1ccco1)N1N=C(c2cccs2)CC1c1ccccc1O (stereo not drawn) | inactive: -26.5% | –
CCOC(=O)c1cnc(SCC(=O)Nc2cc(OC)cc(OC)c2)nc1N | inactive: -1.02% | –
O=C(Nc1cc2c3c(c1)CC(=O)N3CCC2)c1ccc(F)cc1 | inactive: 8.05% | –
O=C(CNC(=S)N(Cc1ccccc1)Cc1cccnc1)NCCN1CCOCC1 | inactive: 21.3% [at 46.1 µM] | –
COCCn1c(C(F)(F)F)ccc(NC(=O)c2ccccc2)c1=O | – | inconclusive: 20.6 µM [inhibitor, single point]
